The other results are listed elsewhere or left out.
Experiments:
Test in all cases: log2 fold change, soluble protein after heating vs DMSO (PISA); higher = thermal stabilisation; K562 lysate, 10 uM; active = over 0.2 and 3.5 SD of the protein, either way, in both replicates (recomputed)
[1] = compound: NCC(=O)Nc1ccc(-n2nc(C(F)(F)F)cc2-c2ccc3c(ccc4ccccc43)c2)cc1
Procedure, shortened: (§1)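 A 30 min treatment with 10 μM compound was applied to crude K562 extract at 1 mg/mL protein in PBS pH 7.4 with 1 mM MgCl2. Heating for 3 min spanned 48°C-58°C, after which aliquots were pooled, adjusted to 0.5% NP-40 at 4°C and spun at 21,000xg for 90 min. TMTpro 16plex LC-MS/MS of the supernatant, with channel sums equalised, gave values recorded as log-two fold change in thermal stability against solvent controls, from duplicates.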

Sequences of proteins named here, by UniProt entry; tags and fusion partners are left off. A change or cut given only in a name is not applied to a line headed by its entry.
UniProt Q9BUF5, whole entry, looked up: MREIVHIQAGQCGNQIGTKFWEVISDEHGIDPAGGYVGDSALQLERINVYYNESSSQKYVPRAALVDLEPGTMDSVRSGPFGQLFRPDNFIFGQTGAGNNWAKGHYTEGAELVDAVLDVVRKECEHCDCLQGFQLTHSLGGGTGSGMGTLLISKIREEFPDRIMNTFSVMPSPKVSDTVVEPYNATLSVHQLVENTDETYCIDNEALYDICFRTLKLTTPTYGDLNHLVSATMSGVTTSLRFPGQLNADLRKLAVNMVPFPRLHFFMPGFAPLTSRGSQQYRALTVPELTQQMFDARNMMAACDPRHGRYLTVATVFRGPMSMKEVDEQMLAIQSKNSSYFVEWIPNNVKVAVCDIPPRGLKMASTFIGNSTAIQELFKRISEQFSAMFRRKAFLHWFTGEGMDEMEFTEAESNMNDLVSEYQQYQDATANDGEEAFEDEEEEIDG
UniProt Q96RR1: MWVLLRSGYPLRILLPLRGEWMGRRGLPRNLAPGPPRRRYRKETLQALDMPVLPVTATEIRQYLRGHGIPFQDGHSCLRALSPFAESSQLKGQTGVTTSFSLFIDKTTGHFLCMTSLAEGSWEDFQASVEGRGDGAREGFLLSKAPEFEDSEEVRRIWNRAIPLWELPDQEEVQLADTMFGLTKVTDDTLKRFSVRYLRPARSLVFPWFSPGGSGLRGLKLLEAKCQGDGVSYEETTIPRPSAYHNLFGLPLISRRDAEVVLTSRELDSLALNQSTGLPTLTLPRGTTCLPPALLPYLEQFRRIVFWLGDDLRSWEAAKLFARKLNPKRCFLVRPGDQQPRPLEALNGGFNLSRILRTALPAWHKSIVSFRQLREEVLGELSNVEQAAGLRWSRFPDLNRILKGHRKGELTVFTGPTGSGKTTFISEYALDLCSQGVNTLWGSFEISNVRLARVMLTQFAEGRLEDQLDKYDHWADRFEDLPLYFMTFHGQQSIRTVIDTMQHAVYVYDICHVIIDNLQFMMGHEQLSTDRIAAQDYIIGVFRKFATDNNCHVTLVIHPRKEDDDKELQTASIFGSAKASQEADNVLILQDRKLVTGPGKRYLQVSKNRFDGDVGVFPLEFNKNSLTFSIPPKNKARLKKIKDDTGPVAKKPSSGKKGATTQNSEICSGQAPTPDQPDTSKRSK
UniProt Q14139: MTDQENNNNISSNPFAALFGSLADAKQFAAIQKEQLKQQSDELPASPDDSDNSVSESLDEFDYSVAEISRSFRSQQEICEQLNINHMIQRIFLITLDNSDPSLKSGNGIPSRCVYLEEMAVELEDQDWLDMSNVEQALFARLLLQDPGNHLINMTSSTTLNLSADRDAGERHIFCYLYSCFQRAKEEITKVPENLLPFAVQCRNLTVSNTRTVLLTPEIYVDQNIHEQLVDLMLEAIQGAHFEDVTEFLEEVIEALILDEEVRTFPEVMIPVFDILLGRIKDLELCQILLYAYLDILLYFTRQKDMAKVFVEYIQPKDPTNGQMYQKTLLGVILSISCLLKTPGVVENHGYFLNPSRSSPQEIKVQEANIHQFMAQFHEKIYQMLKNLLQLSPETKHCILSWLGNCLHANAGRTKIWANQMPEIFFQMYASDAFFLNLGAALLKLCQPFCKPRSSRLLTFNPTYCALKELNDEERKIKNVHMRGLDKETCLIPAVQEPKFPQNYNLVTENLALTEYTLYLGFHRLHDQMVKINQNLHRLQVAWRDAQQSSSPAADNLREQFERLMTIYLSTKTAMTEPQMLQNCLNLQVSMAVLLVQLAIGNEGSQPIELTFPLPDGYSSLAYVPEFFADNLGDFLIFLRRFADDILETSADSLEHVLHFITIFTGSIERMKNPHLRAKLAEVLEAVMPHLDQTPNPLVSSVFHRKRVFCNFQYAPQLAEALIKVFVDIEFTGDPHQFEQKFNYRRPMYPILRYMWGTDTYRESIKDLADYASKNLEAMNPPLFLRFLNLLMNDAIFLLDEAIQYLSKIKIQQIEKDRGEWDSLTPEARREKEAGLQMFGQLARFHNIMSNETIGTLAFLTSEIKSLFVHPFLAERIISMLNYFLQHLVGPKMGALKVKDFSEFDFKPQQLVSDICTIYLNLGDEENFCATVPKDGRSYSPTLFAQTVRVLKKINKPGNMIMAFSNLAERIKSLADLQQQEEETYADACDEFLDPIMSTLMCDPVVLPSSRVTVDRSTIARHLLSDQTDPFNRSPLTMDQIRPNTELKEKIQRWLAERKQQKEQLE
UniProt Q9H6E5: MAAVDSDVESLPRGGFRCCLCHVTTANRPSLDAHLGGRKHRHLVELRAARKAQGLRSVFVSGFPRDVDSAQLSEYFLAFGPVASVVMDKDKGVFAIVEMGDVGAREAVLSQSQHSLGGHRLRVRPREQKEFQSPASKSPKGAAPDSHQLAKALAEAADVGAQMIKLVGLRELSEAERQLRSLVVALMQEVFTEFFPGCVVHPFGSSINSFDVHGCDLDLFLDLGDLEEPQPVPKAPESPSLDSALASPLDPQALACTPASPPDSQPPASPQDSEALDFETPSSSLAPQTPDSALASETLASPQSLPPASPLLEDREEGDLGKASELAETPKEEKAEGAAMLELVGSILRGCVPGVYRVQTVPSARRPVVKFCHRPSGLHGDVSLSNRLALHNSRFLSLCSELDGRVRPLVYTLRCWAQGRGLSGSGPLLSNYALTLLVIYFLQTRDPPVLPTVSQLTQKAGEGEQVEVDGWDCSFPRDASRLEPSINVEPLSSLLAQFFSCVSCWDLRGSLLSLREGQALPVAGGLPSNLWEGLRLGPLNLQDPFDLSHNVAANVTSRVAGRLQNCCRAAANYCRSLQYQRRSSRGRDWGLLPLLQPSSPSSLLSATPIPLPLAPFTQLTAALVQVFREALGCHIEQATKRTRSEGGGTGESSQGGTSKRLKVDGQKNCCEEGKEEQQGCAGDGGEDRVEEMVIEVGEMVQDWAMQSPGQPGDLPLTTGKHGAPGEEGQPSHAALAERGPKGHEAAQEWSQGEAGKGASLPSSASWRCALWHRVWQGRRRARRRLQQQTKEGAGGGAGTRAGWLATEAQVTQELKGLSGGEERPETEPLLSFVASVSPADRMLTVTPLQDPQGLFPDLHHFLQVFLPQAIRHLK
UniProt O14562: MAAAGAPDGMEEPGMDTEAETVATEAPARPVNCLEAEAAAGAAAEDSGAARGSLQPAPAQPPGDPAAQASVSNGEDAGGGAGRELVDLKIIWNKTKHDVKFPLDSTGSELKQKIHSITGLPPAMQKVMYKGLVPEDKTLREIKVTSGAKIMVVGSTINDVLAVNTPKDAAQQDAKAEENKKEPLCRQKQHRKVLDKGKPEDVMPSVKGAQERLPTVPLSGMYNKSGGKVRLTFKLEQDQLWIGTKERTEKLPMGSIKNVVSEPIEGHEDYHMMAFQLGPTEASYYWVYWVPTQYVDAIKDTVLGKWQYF
UniProt Q04323: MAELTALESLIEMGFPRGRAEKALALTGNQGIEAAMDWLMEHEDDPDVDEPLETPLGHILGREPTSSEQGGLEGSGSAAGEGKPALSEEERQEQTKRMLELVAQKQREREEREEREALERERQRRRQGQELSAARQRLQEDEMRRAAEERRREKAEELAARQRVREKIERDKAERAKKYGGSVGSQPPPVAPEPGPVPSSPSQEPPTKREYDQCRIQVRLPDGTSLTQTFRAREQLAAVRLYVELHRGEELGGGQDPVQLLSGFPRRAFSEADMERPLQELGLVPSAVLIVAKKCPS
UniProt Q6ZU65, whole entry, looked up: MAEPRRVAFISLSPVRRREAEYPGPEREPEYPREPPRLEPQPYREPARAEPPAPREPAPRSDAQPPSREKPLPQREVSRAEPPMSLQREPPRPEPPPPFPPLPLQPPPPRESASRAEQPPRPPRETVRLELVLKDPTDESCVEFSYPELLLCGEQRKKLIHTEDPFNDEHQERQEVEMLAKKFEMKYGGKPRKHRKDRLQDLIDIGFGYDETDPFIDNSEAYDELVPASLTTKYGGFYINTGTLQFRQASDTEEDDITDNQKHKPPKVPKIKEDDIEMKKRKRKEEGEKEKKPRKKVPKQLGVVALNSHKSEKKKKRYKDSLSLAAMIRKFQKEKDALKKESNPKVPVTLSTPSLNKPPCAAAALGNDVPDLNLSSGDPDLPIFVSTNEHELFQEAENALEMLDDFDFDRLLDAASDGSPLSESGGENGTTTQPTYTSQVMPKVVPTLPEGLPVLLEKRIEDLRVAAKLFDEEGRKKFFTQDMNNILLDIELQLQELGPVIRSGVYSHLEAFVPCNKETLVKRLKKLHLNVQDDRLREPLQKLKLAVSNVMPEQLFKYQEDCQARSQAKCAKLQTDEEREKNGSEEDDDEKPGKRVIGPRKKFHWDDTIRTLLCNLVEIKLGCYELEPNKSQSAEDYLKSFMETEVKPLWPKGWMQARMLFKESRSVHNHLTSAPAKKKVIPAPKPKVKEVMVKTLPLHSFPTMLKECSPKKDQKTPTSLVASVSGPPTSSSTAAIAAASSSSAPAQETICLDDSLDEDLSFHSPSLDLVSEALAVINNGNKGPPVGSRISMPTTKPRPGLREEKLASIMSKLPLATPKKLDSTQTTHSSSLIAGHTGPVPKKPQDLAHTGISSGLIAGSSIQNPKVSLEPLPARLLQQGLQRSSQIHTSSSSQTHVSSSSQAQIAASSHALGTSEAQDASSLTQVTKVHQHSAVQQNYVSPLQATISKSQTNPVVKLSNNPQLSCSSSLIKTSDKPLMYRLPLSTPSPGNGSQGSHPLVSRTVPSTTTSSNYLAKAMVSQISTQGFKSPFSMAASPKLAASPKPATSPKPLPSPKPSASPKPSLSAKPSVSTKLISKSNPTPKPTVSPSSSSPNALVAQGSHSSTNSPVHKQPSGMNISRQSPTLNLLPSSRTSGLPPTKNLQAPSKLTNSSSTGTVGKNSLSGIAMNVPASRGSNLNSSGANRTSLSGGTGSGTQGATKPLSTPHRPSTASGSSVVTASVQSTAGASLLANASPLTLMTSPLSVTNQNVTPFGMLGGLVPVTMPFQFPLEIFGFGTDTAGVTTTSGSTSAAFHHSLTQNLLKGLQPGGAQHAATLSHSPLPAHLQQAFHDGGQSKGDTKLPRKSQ
UniProt P61077: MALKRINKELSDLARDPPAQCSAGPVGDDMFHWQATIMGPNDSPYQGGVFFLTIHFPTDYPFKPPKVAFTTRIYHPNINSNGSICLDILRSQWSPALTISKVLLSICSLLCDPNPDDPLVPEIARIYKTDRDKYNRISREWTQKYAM
UniProt Q969M7: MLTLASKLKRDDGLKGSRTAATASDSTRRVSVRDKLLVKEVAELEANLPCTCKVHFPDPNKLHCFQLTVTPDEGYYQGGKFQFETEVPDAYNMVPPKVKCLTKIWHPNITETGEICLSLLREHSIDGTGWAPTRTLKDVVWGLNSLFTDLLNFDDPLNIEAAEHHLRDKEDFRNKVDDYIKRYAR
UniProt Q969T4: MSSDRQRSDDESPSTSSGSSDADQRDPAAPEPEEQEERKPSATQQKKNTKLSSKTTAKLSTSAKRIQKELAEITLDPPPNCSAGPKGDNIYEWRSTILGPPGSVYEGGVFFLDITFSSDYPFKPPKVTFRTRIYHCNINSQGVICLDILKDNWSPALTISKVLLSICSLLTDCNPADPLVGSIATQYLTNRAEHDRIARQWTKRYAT
UniProt Q99757: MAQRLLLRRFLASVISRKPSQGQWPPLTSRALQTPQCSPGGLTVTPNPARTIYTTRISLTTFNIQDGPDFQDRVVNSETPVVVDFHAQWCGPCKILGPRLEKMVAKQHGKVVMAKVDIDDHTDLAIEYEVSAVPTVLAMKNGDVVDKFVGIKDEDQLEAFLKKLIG
UniProt Q3B726, whole entry, looked up: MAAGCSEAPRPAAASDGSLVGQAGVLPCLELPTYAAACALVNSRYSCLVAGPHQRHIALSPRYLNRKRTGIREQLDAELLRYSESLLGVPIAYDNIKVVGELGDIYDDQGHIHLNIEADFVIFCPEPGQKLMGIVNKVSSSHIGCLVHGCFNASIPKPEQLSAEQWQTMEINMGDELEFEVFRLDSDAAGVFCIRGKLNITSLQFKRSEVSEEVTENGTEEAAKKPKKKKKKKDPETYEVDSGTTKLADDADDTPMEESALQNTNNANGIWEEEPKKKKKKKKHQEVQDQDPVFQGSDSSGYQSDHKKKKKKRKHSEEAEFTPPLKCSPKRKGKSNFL
UniProt Q8NBM4: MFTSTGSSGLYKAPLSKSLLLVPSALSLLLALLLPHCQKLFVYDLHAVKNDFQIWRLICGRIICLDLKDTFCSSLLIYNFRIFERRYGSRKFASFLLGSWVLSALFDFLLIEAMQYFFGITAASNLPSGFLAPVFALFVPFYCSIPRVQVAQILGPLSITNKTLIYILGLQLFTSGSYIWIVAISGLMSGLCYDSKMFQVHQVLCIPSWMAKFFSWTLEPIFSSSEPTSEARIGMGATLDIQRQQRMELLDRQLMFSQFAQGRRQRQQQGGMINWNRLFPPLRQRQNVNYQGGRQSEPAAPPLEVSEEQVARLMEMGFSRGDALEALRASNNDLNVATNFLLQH
UniProt P61088: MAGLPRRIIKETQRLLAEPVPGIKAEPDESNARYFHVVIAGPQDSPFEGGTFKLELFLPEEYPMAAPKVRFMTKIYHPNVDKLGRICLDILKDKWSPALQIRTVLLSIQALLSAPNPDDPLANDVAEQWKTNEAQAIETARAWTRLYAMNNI

vorinostat = compound: O=C(CCCCCCC(=O)Nc1ccccc1)NO [vorinostat]
Procedure, shortened: as §1

silmitasertib = compound: O=C(O)c1ccc2c(c1)nc(Nc1cccc(Cl)c1)c1ccncc12 [silmitasertib]
Procedure, shortened: as §1

[2] = compound: O=C1NC(=O)C(c2cnc3ccccn23)=C1c1cn2c3c(cc(F)cc13)CN(C(=O)N1CCCCC1)CC2
Procedure, shortened: as §1

entospletinib = compound: c1cn2cc(-c3ccc4cn[nH]c4c3)nc(Nc3ccc(N4CCOCC4)cc3)c2n1 [entospletinib]
Procedure, shortened: as §1

Target: TUBB6 (UniProt Q9BUF5)
- log2 fold change [1]: inactive: 0.013
- log2 fold change (vorinostat): active: -0.558
- log2 fold change (silmitasertib): inactive: 0.04
- log2 fold change [2]: inactive: 0.013
- log2 fold change (entospletinib): inactive: 0.004

Target: UBXN2A (UniProt P68543)
- log2 fold change [1]: inactive: -0.011
- log2 fold change (vorinostat): inactive: -0.021
- log2 fold change (silmitasertib): inactive: 0.015
- log2 fold change [2]: inactive: -0.002

Target: UBE2R2 (UniProt Q712K3)
- log2 fold change [1]: inactive: 0.036
- log2 fold change (vorinostat): inactive: 0.048
- log2 fold change (silmitasertib): inactive: -0.044
- log2 fold change [2]: inactive: -0.031
- log2 fold change (entospletinib): inactive: -0.006

Target: TWNK (UniProt Q96RR1)
- log2 fold change [1]: inactive: 0.119
- log2 fold change (vorinostat): inactive: 0.27
- log2 fold change (silmitasertib): inactive: -0.106
- log2 fold change [2]: inactive: 0.067
- log2 fold change (entospletinib): inactive: -0.043

Target: UBE4A isoform 2 (UniProt Q14139)
- log2 fold change [1]: inactive: 0.007
- log2 fold change (vorinostat): active: -0.257
- log2 fold change (silmitasertib): inactive: 0.019
- log2 fold change [2]: inactive: 0.029
- log2 fold change (entospletinib): inactive: 0.026

Target: TUT1 (UniProt Q9H6E5)
- log2 fold change [1]: inactive: 0.101
- log2 fold change (vorinostat): inactive: -0.062
- log2 fold change (silmitasertib): inactive: 0.023
- log2 fold change [2]: inactive: 0
- log2 fold change (entospletinib): inactive: -0.024

Target: UBFD1 (UniProt O14562)
- log2 fold change [1]: inactive: 0.021
- log2 fold change (vorinostat): inactive: 0.131
- log2 fold change (silmitasertib): inactive: -0.026
- log2 fold change [2]: inactive: 0.022
- log2 fold change (entospletinib): inactive: 0.009

Target: UBXN1 (UniProt Q04323)
- log2 fold change [1]: inactive: -0.006
- log2 fold change (vorinostat): inactive: 0.051
- log2 fold change (silmitasertib): inactive: 0.008
- log2 fold change [2]: inactive: -0.053
- log2 fold change (entospletinib): inactive: -0.008

Target: UBN2 (UniProt Q6ZU65)
- log2 fold change [1]: inactive: 0.265
- log2 fold change (vorinostat): inactive: -0.164
- log2 fold change (silmitasertib): inactive: 0.036
- log2 fold change [2]: inactive: -0.186
- log2 fold change (entospletinib): inactive: 0.075

Target: UCHL5 (UniProt Q5LJA9)
- log2 fold change [1]: inactive: -0.017
- log2 fold change (vorinostat): active: -0.361
- log2 fold change (silmitasertib): inactive: 0.004
- log2 fold change [2]: inactive: -0.086
- log2 fold change (entospletinib): inactive: -0.011

Target: UBE2D3 isoform 3 (UniProt P61077)
- log2 fold change [1]: inactive: -0.006
- log2 fold change (vorinostat): inactive: -0.074
- log2 fold change (silmitasertib): inactive: -0.024
- log2 fold change [2]: inactive: 0.046
- log2 fold change (entospletinib): inactive: 0.003

Target: TXNDC16 (UniProt Q9P2K2)
- log2 fold change [1]: inactive: 0.046
- log2 fold change (vorinostat): inactive: 0.08
- log2 fold change (silmitasertib): inactive: -0.039
- log2 fold change [2]: inactive: 0.041

Target: TUFM (UniProt P49411)
- log2 fold change [1]: inactive: 0.016
- log2 fold change (vorinostat): inactive: -0.175
- log2 fold change (silmitasertib): inactive: 0.045
- log2 fold change [2]: inactive: 0.013
- log2 fold change (entospletinib): inactive: 0.027

Target: UBE2F isoform 2 (UniProt Q969M7)
- log2 fold change [1]: inactive: -0.003
- log2 fold change (vorinostat): inactive: -0.011
- log2 fold change (silmitasertib): inactive: -0.03
- log2 fold change [2]: inactive: 0.019
- log2 fold change (entospletinib): inactive: 0.026

Target: UBE2E3 (UniProt Q969T4)
- log2 fold change [1]: inactive: 0.048
- log2 fold change (vorinostat): inactive: 0.022
- log2 fold change (silmitasertib): inactive: 0.03
- log2 fold change [2]: inactive: 0.003
- log2 fold change (entospletinib): inactive: -0.006

Target: TXLNG (UniProt Q9NUQ3)
- log2 fold change [1]: inactive: 0.014
- log2 fold change (vorinostat): inactive: -0.037
- log2 fold change (silmitasertib): inactive: 0.009
- log2 fold change [2]: inactive: -0.042
- log2 fold change (entospletinib): inactive: -0.014

Target: TUBGCP3 (UniProt Q96CW5)
- log2 fold change [1]: inactive: -0.014
- log2 fold change (vorinostat): active: -0.459
- log2 fold change (silmitasertib): inactive: -0.014
- log2 fold change [2]: inactive: 0.019
- log2 fold change (entospletinib): inactive: -0.003

Target: U2AF2 (UniProt P26368)
- log2 fold change [1]: inactive: 0.012
- log2 fold change (vorinostat): inactive: 0.154
- log2 fold change (silmitasertib): inactive: -0.081
- log2 fold change [2]: inactive: 0.006
- log2 fold change (entospletinib): inactive: -0.003

Target: TXN2 (UniProt Q99757)
- log2 fold change [1]: inactive: -0.014
- log2 fold change (vorinostat): inactive: 0.099
- log2 fold change (silmitasertib): inactive: -0.027
- log2 fold change [2]: inactive: 0.031
- log2 fold change (entospletinib): inactive: -0.001

Target: TXNDC15 (UniProt Q96J42)
- log2 fold change [1]: inactive: 0.006
- log2 fold change (vorinostat): inactive: 0.111
- log2 fold change (silmitasertib): inactive: 0.056
- log2 fold change [2]: inactive: -0.051
- log2 fold change (entospletinib): inactive: -0.067

Target: UBE2I (UniProt P63279)
- log2 fold change [1]: inactive: -0.013
- log2 fold change (vorinostat): inactive: 0.061
- log2 fold change (silmitasertib): inactive: 0.005
- log2 fold change [2]: inactive: -0.015
- log2 fold change (entospletinib): inactive: 0.034

Target: TULP3 isoform 2 (UniProt O75386)
- log2 fold change [1]: inactive: -0.015
- log2 fold change (vorinostat): inactive: -0.355
- log2 fold change (silmitasertib): inactive: 0.065

Target: TWISTNB (UniProt Q3B726)
- log2 fold change [1]: inactive: -0.06
- log2 fold change (vorinostat): inactive: -0.067
- log2 fold change (silmitasertib): inactive: 0.027
- log2 fold change [2]: inactive: 0.015
- log2 fold change (entospletinib): inactive: 0.052

Target: UBAC2 (UniProt Q8NBM4)
- log2 fold change [1]: inactive: -0.04
- log2 fold change (vorinostat): inactive: 0.067
- log2 fold change (silmitasertib): inactive: -0.04
- log2 fold change [2]: inactive: -0.104
- log2 fold change (entospletinib): inactive: 0.102

Target: UBE2N (UniProt P61088)
- log2 fold change [1]: inactive: -0.036
- log2 fold change (vorinostat): inactive: -0.051
- log2 fold change (silmitasertib): inactive: 0.005
- log2 fold change [2]: inactive: 0.028
- log2 fold change (entospletinib): inactive: -0.056

Target: UBE3D (UniProt Q7Z6J8)
- log2 fold change [1]: inactive: -0.056
- log2 fold change (vorinostat): inactive: 0.028
- log2 fold change (silmitasertib): inactive: -0.039
- log2 fold change [2]: inactive: -0.003
- log2 fold change (entospletinib): inactive: 0.001

Target: UBE2S (UniProt Q16763)
- log2 fold change [1]: inactive: 0.015
- log2 fold change (vorinostat): inactive: -0.13
- log2 fold change (silmitasertib): inactive: -0.001
- log2 fold change [2]: inactive: 0.018
- log2 fold change (entospletinib): inactive: 0.01

Source: the supplement of paper PMC10849652
